# According to PubChem BioAssay AID1259354 (Paczesny and Yang Labs, IUPUI and University of Michigan, 2018):
# Protein sequences, listed by entry. Tags and fused reporters are not part of them. Lines headed by an entry give the natural chain unless they say otherwise; changes in a name come on top.
# UniProt Q01638: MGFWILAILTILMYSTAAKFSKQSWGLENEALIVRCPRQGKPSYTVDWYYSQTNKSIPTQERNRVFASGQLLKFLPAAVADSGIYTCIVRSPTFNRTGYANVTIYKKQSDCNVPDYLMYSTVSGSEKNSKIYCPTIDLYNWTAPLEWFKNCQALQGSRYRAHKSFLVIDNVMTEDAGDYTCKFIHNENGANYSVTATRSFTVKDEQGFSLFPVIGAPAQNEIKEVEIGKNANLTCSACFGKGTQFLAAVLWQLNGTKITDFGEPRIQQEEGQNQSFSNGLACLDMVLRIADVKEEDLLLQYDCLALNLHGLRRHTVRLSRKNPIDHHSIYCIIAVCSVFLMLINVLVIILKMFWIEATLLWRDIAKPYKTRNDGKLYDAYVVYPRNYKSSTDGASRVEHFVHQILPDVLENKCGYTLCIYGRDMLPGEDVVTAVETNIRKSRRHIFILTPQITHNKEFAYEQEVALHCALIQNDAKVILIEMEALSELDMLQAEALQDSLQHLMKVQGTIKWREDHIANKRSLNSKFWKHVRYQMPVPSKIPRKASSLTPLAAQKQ
# Out of some 78,000 compounds screened, about 1,800 (2.3%) were called active. The shares of active, inactive and inconclusive entries below differ from those in the screen. Cut-off read from the data, not from the text of the source: active = inhibition above about 30%; inconclusive = mostly about 10% to 28%; inactive = weaker than that.
# Target: Interleukin-1 receptor-like 1 (Homo sapiens) (UniProt Q01638)
# Experiment: blocks human ST2 binding to IL-33, primary screen, biochemical, AlphaLISA (AID 1259354)
# Conditions: AlphaLISA ST2-Fc/biotin-IL-33 interaction, 1 h; at 17 µM, active compounds read high
row,SMILES,inhibition
1,O=[N+]([O-])c1ccc(CSc2ncnc3c2ncn3[C@@H]2O[C@H](CO)[C@@H](O)[C@H]2O)cc1,inconclusive: 27%
2,Cc1ccc(NC(=O)C(=O)N2CCCn3cncc3C2)c(C)c1,inconclusive: 22%
3,Cc1cc([N+](=O)[O-])ccc1NC(=O)COc1nsnc1N1CCOCC1,inconclusive: 18%
4,CCOc1cccc(N2C(=O)CC(N3CCN(Cc4ccc5c(c4)OCO5)CC3)C2=O)c1 (stereo not given),inactive
5,CCCCCC(=O)N1CC[C@@H](CC(=O)N(C)CC#N)[C@@H](CC)C1,inconclusive: 15%
6,CN(C)c1ccnc(Sc2ccccc2)c1C#N,inactive
7,CC(=O)Nc1ncc(C(=O)N2CCCC3(CN(C)C(=O)O3)C2)s1 (stereo not given),inconclusive: 23%
8,CC1(C)OC(=O)C(=CNc2ccc(C(=O)O)cc2)C(=O)O1,inactive
9,CC1=C[C@@H](CNC(=O)Nc2ccccc2)[C@H](C(C)C)C[C@H]1CC(=O)N1CCN(C)CC1,inconclusive: 17%
10,O=C(Cn1c(=O)oc2ccccc21)Nc1ccc(C(=O)N2CCCCC2)cc1,inconclusive: 11%
11,O=Nc1ccc2oc(=O)ccc2c1,inconclusive: 25%
12,CCOc1ccc(NC(=O)c2cc3cc4ccc(OC)cc4nc3o2)cc1,inconclusive: 14%
13,COc1cc2c(cc1CNc1cc(C3CCNCC3)ncn1)OCCO2,inactive
14,O=C(c1cc(-n2cccn2)ccc1Cl)N1CCC(N2CCCC2=O)CC1,inconclusive: 12%
15,CCc1cn[nH]c1C1CCN(C(=O)c2cc(C(C)=O)c(C)[nH]c2=O)CC1,inactive
16,Cc1ccc(Cn2c(CCNC(=O)Nc3ccc(F)c(Cl)c3)nc3cccnc32)cc1,inconclusive: 17%
17,C[C@H]1O[C@H](O[C@@]23C(=O)[C@@H](O)[C@](C)(O)C[C@]2(O)C=CC2=C3C(=O)c3cccc(O)c3C2=O)CC[C@H]1O,inconclusive: 24%
18,COc1ccc2oc(=Nc3cccc(C)c3)c(C(N)=O)cc2c1,inactive
19,Cc1ccc2c(c1)c(=O)c(C(=O)N(C)Cc1csc(C)n1)cn2C,inactive
20,COc1cc(SC)ccc1C(=O)Nc1ccc(S(=O)(=O)Nc2nccc(C)n2)cc1,inconclusive: 12%

row,SMILES,inhibition
1,Cc1cc(-n2nc(C)nc2-c2ccc(C3CCCN3)s2)ccn1 (stereo not given),inconclusive: 26%
2,N#CC1=C(N)N(c2ccc(Cl)c(Cl)c2)C2=C(C(=O)CCC2)C1c1cccnc1 (stereo not given),inconclusive: 11%
3,O=[N+]([O-])c1cccc(CN2CCC(Cc3ccccc3)CC2)c1,inconclusive: 24%
4,CCn1cc(C(=O)NC2CCCCCC2)c(=O)c2cc(S(=O)(=O)N3CCCCC3)ccc21,inconclusive: 11%
5,COc1cc(C(=O)Nc2nc3ccc(S(C)(=O)=O)cc3s2)cc(OC)c1OC,inconclusive: 17%
6,CCCC(=O)Nc1ccccc1C1(C)CC1,inactive
7,O=C(Nc1cccc([N+](=O)[O-])c1)c1cc2ccccc2o1,inconclusive: 24%
8,Cc1[nH]nc(SCC(=O)N2C(C)CCCC2C)c1[N+](=O)[O-] (stereo not given),inactive
9,COc1ccc(-c2[nH]nc3c2C(c2cn[nH]c2-c2ccc(F)cc2)C(C#N)=C(N)O3)cc1OC (stereo not given),inconclusive: 21%
10,Cn1c(-c2ccc(C3NCCc4[nH]cnc43)o2)nc2ccccc21 (stereo not given),inconclusive: 13%
11,CCC(C)OC(=O)C1=C(C)NC2=C(C(=O)C(C(=O)OC)C(C)C2)C1c1ccc(Cl)cc1 (stereo not given),inactive
12,O=C1CC2(CCN(CCc3ccccc3)CC2)CN1,inconclusive: 11%
13,CN(Cc1ccc(-c2nc(-c3cccnc3)cc(=O)[nH]2)cc1)Cc1ccco1,inconclusive: 11%
14,Cc1sc(NC(=O)c2sc3ccccc3c2Cl)c(C(N)=O)c1C,inconclusive: 10%
15,COc1ccc(-c2noc(-c3ccc(Br)o3)n2)cc1OC,inconclusive: 14%
16,CCC(C)N(Cc1ccncc1)C(=O)c1ccccc1OC(F)F (stereo not given),inactive
17,O=C(NCCc1ccccc1)C1CCCN(C2CCN(c3cnccn3)CC2)C1 (stereo not given),inconclusive: 11%
18,COc1ccc(C(=O)Nc2ccc(S(=O)(=O)N(C)C3CCCCC3)cc2)c(OC)c1OC,inactive
19,CC1=C(C(=O)Nc2ccccc2)C(c2cccnc2)n2nc(SCc3ccccc3)nc2N1 (stereo not given),inactive
20,COc1ccccc1-n1cc2c([N+](=O)[O-])cc([N+](=O)[O-])cc2n1,active: 35%

# Grouped by structure, those above with a thiophene ring, fused or not.
row,SMILES,inhibition
1,Cc1cc(-n2nc(C)nc2-c2ccc(C3CCCN3)s2)ccn1 (stereo not given),inconclusive: 26%
14,Cc1sc(NC(=O)c2sc3ccccc3c2Cl)c(C(N)=O)c1C,inconclusive: 10%

# (cont.)

row,SMILES,inhibition
1,O=C1Nc2ccc(Br)cc2/C1=C/c1cccs1,inconclusive: 19%
2,Cn1c(=O)c(-c2ccccc2N)nc2cc3ccccc3cc21,active: 32%
3,N#CC1=C(N)OC2=C(C(=O)CCC2)C1c1ccccc1 (stereo not given),inconclusive: 15%
4,COCC1=C2/C(=C\C3(C)CCC(O)(O3)[C@](C)(O)C[C@@H]2OC(C)=O)OC1=O (stereo not given in full),inactive
5,N#Cc1c(N2C(=O)CC(Sc3ncccc3C(=O)O)C2=O)sc2c1CCCC2 (stereo not given),inconclusive: 23%
6,CCC1CCCCN1CCCNc1ncnc2nc[nH]c12 (stereo not given),inactive
7,CC(C)(C)c1nnc(Nc2ccc3c(c2)OCCO3)[nH]c1=O,inactive
8,Cc1ccc2oc(/C=C/c3nc4cc(C)ccc4o3)nc2c1,inactive
9,Cn1cc(/C=C/C(=O)N2CCC3(CCCN(CCc4ccccc4)C3)C2)cn1 (stereo not given),inconclusive: 10%
10,O=C(O)c1ccc(S(=O)(=O)c2ccccc2)cc1,inactive
11,COc1ccc2nc(SC(=O)c3ccccc3)nc(C)c2c1,active: 43%
12,CC1=C(C(=O)OCCc2ccccc2)C(c2ccc(Cl)cc2)NC(=O)N1 (stereo not given),inactive
13,CCC(=O)Nc1cc(Cl)ccc1C(=O)N1C[C@H](OC(C)C)[C@@H](O)C1,inconclusive: 16%
14,O=C(O)CCCN1C(=O)c2ccccc2C1=O,inactive
15,Cc1noc(C)c1CCC(=O)N1CCCC2(CC1)CN(C)C(=O)O2 (stereo not given),inactive
16,C=C(C)Cn1c(C(C)NC(=O)c2ccccc2)nc2ccccc21 (stereo not given),inactive
17,CCN1Cc2nc(OC)c(CNC(=O)c3cccc4c3OCC4)cc2C1=O,inconclusive: 10%
18,Cc1cc(C)nc(N2CCN(CCOc3cccc(C)c3C)CC2)n1,inconclusive: 19%
19,CC(=O)N1CCN(S(=O)(=O)c2ccccc2)C[C@H]1C(=O)N[C@@H](CC1CCCCC1)C(N)=O,inactive
20,Cc1ccc(F)cc1N1C(=O)C2C3CCC(C3)C2C1=O (stereo not given),inactive
